# From PubChem BioAssay AID248 (DTP/NCI, 2004)
# The list shows only some results of the screen, not a fair sample: it gathers tests that were run many times, whatever their T/C, doses with no T/C, and many T/C values between a quarter and a half above the control. Other doses and runs of a compound stand elsewhere. T/C gives the treated animals as a percentage of the vehicle group. Some entries give survivors of the animals treated and no T/C: the source holds a T/C of zero for them, seemingly a mark for toxic or unscored doses. Some doses without a T/C left all or most animals alive at the check, yet need not have been tolerated: the source hardly ever lists a survival T/C far under the control, and the zero likely stands for such cases as well. Survivors were counted at the toxicity check, usually on the fifth day, unless a day is given; later deaths do not show. Schedules are NCI's codes, read here as Q, the interval in days (D) or hours (H), X, the number of doses. Some molecules as drawn cover several salts, stereoisomers or complexes of the source; a dose is that of the sample tested. Where survival is the endpoint, the PubChem record calls one and a half times the control and up active, and a quarter to a half above the control has no call in these data; cut-offs in other NCI protocols can differ. Some T/C values are followed by the survivors on the day toxicity was checked, most often the fifth; without a count, all were alive then.
# Test system: L1210 leukemia ip in BDF1 mice, survival T/C
# Assay: NCI In Vivo Anticancer Drug Screen. Data for tumor model L1210 Leukemia (intraperitoneal) in B6D2F1 (BDF1) mice
# Conditions: T/C endpoint: mean survival time, higher T/C = longer survival
# [1] = dose: 200.0 mg/kg/injection, schedule: Q04DX003 (ip), vehicle: saline with Tween-80
# [2] = dose: 400.0 mg/kg/injection, schedule: Q04DX003 (ip), vehicle: saline with Tween-80
# [3] = dose: 200.0 mg/kg/injection, schedule: Q01DX009 (ip), vehicle: saline
# [4] = dose: 200.0 mg/kg/injection, schedule: Q04DX003 (ip), vehicle: saline
# [5] = dose: 400.0 mg/kg/injection, schedule: Q01DX009 (ip), vehicle: saline
# [6] = dose: 100.0 mg/kg/injection, schedule: Q04DX003 (ip), vehicle: saline
# [7] = dose: 400.0 mg/kg/injection, schedule: Q04DX003 (ip), vehicle: saline
compound,measurement,setting,value
CC([NH-])=O.CC([NH-])=O.[Cl][Pt+2][Cl],T/C,"dose: 200.0 mg/kg/injection, schedule: Q01DX009 (ip), vehicle: water",132 % of control [4 of 6 alive]
same,survivor count,"dose: 400.0 mg/kg/injection, schedule: Q04DX003 (ip), vehicle: water",3 of 6
N#CSCc1cc([N+](=O)[O-])c(CSC#N)c([N+](=O)[O-])c1Cl,survivor count,"dose: 50.0 mg/kg/injection, schedule: Q01DX009 (ip), vehicle: other",2 of 6
same,survivor count,"dose: 100.0 mg/kg/injection, schedule: Q01DX009 (ip), vehicle: other",3 of 6
same,survivor count,"dose: 400.0 mg/kg/injection, schedule: Q04DX003 (ip), vehicle: carboxymethylcellulose (CMC)",4 of 6
C1CCCCCC(NC2=NCCO2)CCCCC1,survivor count,"dose: 100.0 mg/kg/injection, schedule: Q04DX003 (ip), vehicle: saline with Tween-80",5 of 6
same,survivor count,[1],1 of 6
same,survivor count,[2],1 of 6
CN(C)CCC(c1ccccc1)c1cc(Cl)ccn1 (stereo not drawn),survivor count,[3],0 of 6
same,survivor count,[4],3 of 4
same,survivor count,[5],0 of 6
CCC(C)C(CCCCN1CCOCC1)(CNC(=O)CN(CC)CC)c1cccc2ccccc12 (stereo not drawn),survivor count,"dose: 100.0 mg/kg/injection, schedule: Q01DX009 (ip), vehicle: saline",5 of 6
same,survivor count,[3],0 of 6
same,survivor count,[5],0 of 6
Nc1ncnc2c1ncn2CCCCCCl,survivor count,[6],3 of 6
same,survivor count,[4],0 of 6
same,survivor count,[7],0 of 6
N#CC12CC=CCC1CCC2=N (stereo not drawn),survivor count,"dose: 50.0 mg/kg/injection, schedule: Q01DX009 (ip), vehicle: Klucel (hydroxypropylcellulose) (HPC)",1 of 6
same,survivor count,"dose: 75.0 mg/kg/injection, schedule: Q01DX009 (ip), vehicle: Klucel (hydroxypropylcellulose) (HPC)",3 of 6
same,survivor count,"dose: 150.0 mg/kg/injection, schedule: Q01DX009 (ip), vehicle: Klucel (hydroxypropylcellulose) (HPC)",1 of 6
same,survivor count,"dose: 300.0 mg/kg/injection, schedule: Q01DX009 (ip), vehicle: Klucel (hydroxypropylcellulose) (HPC)",0 of 6
CCN1C(=O)CSC1=S,T/C,"dose: 400.0 mg/kg/injection, schedule: Q04DX003 (ip), vehicle: other",130 % of control
CCN(CC)CCOC(=O)N(c1ccccc1)c1ccccc1,survivor count,[3],0 of 6
same,survivor count,[4],1 of 4
same,survivor count,[5],0 of 6
same,survivor count,[7],0 of 4
Cc1cc(C)[nH]c(=O)n1,survivor count,[5],4 of 6
CCOC(=O)NC(C)(C)Cc1ccccc1,survivor count,[1],6 of 6
same,survivor count,[2],1 of 6
C=C1CC2(CCC23COC(=O)C3=C)OC1=O (stereo not drawn),survivor count,"dose: 12.5 mg/kg/injection, schedule: Q01DX001 (ip), vehicle: other",1 of 3
same,survivor count,"dose: 100.0 mg/kg/injection, schedule: Q01DX001 (ip), vehicle: other",0 of 3
same,survivor count,"dose: 200.0 mg/kg/injection, schedule: Q01DX001 (ip), vehicle: other",0 of 3
same,survivor count,"dose: 400.0 mg/kg/injection, schedule: Q01DX001 (ip), vehicle: other",0 of 3
C[N+](C)(C)CCC(=O)c1ccccc1,survivor count,[6],1 of 6
same,survivor count,"dose: 150.0 mg/kg/injection, schedule: Q01DX001 (ip), vehicle: saline",2 of 6
same,survivor count,[4],0 of 6
same,survivor count,"dose: 300.0 mg/kg/injection, schedule: Q01DX001 (ip), vehicle: saline",1 of 6
same,survivor count,[7],0 of 6
